Measurements as given in publication PMC8463608.
These are yes or no findings as the source states them, for the method shown. In cells and extracts the contact can be indirect. A yes stands for co-enrichment or nearness to the bait. Other partners may have been found. Sequences can lack the tags named with a protein.

By UniProt entry, the sequences of proteins in these tests, tags left out. Residues count along the entry.
UniProt P29844, residues 19-656: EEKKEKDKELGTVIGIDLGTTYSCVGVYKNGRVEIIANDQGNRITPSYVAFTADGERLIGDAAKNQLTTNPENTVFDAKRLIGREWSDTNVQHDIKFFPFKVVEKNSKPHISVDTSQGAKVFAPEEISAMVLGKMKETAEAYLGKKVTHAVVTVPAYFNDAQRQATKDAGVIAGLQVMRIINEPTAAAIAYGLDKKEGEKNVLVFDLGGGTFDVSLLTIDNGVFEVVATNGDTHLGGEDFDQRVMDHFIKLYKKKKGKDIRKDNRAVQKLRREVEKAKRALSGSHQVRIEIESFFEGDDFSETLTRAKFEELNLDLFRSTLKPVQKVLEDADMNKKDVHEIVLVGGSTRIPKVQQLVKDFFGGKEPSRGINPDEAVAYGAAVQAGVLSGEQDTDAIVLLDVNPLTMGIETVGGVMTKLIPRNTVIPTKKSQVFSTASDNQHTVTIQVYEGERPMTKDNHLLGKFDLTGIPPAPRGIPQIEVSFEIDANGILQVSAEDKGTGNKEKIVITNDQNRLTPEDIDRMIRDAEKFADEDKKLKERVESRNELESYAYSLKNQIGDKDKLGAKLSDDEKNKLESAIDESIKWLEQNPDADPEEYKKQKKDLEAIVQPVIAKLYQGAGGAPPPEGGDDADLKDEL

Target: T1, Drosophila adiponectin receptor, Myc-tagged (AdipoR-Myc), expressed ubiquitously in larvae (Drosophila) (UniProt Q9VCY8)
T1 sequence: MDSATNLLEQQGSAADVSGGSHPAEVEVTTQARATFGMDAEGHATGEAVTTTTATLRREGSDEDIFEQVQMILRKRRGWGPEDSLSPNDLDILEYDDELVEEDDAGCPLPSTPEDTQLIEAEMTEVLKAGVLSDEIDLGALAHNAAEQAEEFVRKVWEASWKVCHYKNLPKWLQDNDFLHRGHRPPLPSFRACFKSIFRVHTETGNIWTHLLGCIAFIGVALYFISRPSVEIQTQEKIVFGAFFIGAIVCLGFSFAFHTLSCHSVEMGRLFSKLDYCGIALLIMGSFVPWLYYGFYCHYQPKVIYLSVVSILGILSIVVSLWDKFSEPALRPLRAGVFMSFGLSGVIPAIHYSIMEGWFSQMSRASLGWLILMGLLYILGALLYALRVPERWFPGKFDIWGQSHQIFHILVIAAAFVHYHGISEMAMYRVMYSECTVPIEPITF
Assay: affinity purification with mass spectrometry; anti-Myc immunoprecipitation (µMACS magnetic microbeads) of AdipoR-Myc from lysate of larvae expressing it ubiquitously; controls: wild-type larvae and Smo-myc; nanoLC-MS/MS, triplicates

binding: binds
Substance: glucose-regulated protein 78 (Grp78), endogenous in larvae (from UniProt P29844 19-656)
